# Source: the supplement of paper PMC10849652
# By UniProt entry, the sequences of proteins in these tests, tags left out. Where a name states a change or a piece, a line headed by the entry shows the natural chain unless it says otherwise.
# UniProt Q16401: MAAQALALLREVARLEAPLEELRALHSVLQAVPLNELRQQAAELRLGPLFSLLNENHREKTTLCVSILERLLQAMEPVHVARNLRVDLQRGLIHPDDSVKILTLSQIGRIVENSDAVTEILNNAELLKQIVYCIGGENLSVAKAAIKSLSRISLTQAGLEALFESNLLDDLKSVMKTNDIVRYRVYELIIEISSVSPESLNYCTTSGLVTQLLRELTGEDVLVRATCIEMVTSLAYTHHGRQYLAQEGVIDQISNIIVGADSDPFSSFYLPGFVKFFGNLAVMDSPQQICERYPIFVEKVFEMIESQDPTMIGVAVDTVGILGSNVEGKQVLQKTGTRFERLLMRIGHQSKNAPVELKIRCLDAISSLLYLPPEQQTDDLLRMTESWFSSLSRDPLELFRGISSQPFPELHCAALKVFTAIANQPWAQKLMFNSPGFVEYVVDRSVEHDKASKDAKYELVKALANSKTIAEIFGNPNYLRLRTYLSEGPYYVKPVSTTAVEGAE
# UniProt P11216: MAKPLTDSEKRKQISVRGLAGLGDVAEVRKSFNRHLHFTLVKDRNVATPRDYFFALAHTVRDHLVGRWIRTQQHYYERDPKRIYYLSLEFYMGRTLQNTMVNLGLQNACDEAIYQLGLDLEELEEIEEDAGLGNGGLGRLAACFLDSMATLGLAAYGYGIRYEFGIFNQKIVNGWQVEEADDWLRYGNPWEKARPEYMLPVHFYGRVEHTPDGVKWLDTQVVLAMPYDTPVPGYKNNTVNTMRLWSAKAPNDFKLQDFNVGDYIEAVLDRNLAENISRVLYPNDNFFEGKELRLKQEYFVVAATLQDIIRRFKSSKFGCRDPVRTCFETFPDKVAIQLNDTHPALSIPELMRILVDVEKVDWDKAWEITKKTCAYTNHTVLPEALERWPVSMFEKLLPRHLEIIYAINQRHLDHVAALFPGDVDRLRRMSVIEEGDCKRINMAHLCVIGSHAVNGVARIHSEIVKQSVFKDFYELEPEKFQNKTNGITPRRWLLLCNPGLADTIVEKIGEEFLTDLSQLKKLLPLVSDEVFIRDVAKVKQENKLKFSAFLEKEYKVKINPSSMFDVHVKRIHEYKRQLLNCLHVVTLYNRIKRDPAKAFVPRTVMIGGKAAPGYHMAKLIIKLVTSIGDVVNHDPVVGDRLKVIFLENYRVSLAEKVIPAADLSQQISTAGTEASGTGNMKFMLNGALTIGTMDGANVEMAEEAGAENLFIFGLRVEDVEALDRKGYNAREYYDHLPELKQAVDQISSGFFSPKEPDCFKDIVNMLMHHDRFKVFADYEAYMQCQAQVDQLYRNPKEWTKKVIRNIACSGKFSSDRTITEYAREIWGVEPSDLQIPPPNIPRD
# UniProt Q15185: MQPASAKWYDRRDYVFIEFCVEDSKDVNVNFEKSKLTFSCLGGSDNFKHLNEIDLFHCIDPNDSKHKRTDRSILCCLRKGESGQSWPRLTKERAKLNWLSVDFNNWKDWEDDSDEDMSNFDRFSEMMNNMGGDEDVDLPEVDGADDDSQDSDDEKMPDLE
# UniProt Q13200: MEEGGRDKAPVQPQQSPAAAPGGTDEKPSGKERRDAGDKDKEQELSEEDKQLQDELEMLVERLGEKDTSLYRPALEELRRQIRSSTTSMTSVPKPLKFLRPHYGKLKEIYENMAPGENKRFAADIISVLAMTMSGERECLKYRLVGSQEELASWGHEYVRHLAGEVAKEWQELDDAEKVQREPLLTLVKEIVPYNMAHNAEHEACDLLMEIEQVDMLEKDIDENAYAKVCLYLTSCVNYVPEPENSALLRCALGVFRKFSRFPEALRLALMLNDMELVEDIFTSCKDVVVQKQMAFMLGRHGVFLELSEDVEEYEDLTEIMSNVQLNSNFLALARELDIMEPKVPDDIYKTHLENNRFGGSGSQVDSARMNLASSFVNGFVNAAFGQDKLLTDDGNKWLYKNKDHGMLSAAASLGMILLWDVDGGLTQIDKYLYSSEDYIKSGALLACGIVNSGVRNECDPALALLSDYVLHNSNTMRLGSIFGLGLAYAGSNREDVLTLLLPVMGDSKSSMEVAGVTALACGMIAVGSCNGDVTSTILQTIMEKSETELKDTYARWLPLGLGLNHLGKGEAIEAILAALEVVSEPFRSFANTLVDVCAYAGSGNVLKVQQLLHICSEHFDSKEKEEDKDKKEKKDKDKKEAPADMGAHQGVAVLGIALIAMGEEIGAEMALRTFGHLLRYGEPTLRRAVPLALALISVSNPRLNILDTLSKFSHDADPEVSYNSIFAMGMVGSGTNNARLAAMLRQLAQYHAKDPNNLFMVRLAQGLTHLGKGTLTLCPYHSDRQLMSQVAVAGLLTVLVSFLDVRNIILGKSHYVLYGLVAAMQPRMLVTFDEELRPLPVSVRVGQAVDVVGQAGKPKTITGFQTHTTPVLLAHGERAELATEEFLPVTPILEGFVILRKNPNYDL
# UniProt Q13332: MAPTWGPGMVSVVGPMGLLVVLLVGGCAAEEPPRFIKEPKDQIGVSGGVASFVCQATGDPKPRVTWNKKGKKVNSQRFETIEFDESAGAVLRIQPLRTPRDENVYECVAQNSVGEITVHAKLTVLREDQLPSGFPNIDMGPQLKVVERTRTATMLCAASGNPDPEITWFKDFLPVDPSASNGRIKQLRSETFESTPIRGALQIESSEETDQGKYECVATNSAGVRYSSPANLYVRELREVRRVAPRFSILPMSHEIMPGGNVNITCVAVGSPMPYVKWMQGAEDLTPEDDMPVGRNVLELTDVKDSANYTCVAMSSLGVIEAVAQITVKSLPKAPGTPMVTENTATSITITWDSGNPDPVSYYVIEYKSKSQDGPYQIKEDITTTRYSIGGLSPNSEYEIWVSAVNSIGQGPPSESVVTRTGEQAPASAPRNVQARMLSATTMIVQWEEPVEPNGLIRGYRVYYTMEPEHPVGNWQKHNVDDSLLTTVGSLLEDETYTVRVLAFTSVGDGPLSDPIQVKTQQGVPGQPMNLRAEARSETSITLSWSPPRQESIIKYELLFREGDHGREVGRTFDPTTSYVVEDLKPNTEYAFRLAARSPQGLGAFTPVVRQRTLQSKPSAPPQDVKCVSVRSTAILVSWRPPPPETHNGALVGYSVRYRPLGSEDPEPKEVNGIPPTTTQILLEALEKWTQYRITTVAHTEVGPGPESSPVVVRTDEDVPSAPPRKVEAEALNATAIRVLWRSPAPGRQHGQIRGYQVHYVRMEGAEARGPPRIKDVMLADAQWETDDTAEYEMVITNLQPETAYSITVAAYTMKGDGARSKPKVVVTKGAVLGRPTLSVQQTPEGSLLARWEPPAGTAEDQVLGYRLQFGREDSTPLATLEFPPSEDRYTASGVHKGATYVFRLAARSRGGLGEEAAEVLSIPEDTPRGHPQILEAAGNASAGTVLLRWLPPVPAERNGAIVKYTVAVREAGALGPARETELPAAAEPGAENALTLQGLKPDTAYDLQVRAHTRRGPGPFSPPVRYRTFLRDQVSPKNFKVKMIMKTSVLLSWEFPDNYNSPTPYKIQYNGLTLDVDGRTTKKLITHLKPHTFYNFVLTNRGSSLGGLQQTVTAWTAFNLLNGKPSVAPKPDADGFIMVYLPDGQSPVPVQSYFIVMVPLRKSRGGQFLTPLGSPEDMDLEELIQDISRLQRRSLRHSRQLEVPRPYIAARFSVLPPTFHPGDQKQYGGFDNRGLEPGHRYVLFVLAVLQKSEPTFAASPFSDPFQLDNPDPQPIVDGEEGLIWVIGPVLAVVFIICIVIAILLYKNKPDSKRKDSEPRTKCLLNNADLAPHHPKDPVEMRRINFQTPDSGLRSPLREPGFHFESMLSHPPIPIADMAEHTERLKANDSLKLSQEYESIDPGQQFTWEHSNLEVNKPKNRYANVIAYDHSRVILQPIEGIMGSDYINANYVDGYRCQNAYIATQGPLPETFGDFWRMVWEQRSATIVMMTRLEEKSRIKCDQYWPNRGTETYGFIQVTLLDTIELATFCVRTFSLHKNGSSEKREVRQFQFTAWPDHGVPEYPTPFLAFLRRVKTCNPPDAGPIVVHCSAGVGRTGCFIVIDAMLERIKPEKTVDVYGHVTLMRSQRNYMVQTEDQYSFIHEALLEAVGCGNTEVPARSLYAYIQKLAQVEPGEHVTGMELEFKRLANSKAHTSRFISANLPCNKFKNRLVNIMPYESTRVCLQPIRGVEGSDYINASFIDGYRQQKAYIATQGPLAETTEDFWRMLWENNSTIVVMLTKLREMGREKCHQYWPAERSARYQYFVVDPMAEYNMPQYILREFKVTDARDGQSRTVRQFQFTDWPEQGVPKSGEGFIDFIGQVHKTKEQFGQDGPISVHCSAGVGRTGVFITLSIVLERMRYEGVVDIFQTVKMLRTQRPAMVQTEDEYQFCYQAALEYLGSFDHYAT
# UniProt Q14289, whole entry, looked up: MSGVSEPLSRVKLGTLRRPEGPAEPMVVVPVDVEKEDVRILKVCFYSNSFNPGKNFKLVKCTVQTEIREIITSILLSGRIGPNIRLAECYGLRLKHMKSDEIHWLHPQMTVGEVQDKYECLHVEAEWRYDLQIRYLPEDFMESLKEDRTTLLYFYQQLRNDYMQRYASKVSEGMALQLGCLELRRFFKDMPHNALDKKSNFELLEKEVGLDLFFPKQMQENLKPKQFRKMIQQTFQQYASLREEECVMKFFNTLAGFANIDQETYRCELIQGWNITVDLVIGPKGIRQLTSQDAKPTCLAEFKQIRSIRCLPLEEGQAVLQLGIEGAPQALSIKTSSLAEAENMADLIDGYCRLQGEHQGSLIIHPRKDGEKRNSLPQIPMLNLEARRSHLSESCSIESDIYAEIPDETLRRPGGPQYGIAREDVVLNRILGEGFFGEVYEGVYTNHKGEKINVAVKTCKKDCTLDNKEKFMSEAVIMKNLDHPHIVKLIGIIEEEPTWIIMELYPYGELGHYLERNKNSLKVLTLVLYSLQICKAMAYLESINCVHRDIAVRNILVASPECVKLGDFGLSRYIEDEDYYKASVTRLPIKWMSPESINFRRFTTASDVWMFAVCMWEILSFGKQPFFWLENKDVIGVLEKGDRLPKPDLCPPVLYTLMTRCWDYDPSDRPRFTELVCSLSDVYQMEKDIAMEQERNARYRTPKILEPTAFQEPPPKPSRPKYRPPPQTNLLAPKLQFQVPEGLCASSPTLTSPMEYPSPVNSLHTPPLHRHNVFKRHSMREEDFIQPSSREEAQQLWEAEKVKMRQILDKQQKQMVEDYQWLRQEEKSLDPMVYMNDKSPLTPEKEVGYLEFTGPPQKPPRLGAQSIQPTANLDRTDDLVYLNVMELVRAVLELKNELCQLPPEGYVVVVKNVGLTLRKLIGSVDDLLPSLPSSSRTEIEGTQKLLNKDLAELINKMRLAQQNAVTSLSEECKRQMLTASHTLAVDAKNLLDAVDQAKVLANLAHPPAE
# UniProt P32322: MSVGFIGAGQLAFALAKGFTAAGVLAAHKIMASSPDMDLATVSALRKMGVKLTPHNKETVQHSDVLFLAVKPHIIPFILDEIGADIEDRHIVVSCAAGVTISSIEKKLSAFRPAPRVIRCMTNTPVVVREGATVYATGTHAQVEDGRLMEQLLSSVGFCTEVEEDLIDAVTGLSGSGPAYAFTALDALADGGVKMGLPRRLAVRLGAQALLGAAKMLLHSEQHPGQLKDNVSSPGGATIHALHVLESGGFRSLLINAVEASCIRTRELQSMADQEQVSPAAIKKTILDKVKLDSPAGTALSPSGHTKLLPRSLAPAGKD
# UniProt Q9BRX8: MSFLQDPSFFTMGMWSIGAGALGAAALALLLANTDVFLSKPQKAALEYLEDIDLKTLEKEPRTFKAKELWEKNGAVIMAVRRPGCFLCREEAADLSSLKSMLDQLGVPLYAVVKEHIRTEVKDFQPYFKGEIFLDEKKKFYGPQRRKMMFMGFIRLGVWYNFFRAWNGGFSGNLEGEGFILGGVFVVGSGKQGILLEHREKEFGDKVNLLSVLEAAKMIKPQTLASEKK
# UniProt Q9Y606: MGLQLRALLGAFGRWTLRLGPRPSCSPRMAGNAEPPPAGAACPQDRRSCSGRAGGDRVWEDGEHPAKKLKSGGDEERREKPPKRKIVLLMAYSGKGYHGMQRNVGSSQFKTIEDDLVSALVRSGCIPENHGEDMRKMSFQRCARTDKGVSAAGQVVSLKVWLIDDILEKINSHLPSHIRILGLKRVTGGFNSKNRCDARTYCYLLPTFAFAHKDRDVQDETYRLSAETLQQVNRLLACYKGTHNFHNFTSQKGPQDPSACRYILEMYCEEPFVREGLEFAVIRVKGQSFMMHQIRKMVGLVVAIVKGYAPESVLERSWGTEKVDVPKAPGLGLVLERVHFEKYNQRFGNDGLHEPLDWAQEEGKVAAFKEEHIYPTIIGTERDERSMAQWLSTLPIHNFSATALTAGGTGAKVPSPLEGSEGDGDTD
# UniProt O00233: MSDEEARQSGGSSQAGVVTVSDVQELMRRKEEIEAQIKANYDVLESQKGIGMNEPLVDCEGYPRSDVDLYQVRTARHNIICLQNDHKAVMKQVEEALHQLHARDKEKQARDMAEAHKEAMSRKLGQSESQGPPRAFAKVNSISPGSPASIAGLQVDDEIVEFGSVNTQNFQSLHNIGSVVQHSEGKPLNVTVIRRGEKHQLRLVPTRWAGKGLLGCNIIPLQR
# The list shows a part of the results.
# Key:
# Assay in all cases: log2 fold change, soluble protein after heating vs DMSO (PISA); higher = thermal stabilisation; K562 cells, 10 uM, 30 min; active = over 0.2 and 3.5 SD of the protein, either way, in both replicates (recomputed)
# [1] = compound: COC1=CC=C(C=C1)CN2C=CC3=C2C=C(C=C3)C(=O)NO
# Outline: (§1)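 K562 cells (2×10^6 cells/mL) were treated with 10 μM compound for 30 min, and aliquots were heated for 3 min over 48°C-58°C. Pooled aliquots were extracted in PBS with 0.5% NP-40 at 4°C, and the supernatant after 21,000xg for 90 min was measured by TMTpro 16plex LC-MS/MS with channel sums equalised. Reported thermal stability, relative to control samples and from duplicates, is a log2 fold change.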
# filanesib = compound: CON(C)C(=O)N1N=C(c2cc(F)ccc2F)S[C@@]1(CCCN)c1ccccc1 [filanesib]
# Outline: as §1
# zotarolimus = compound: CO[C@H]1C[C@@H]2CC[C@@H](C)[C@@](O)(O2)C(=O)C(=O)N2CCCC[C@H]2C(=O)O[C@H]([C@H](C)C[C@@H]2CC[C@H](n3cnnn3)[C@H](OC)C2)CC(=O)[C@H](C)/C=C(\C)[C@@H](O)[C@@H](OC)C(=O)[C@H](C)C[C@H](C)/C=C/C=C/C=C/1C [zotarolimus]
# Outline: as §1
# idasanutlin = compound: COc1cc(C(=O)O)ccc1NC(=O)[C@@H]1N[C@@H](CC(C)(C)C)[C@](C#N)(c2ccc(Cl)cc2F)[C@H]1c1cccc(Cl)c1F [idasanutlin]
# Outline: as §1
# alisertib = compound: COc1cc(Nc2ncc3c(n2)-c2ccc(Cl)cc2C(c2c(F)cccc2OC)=NC3)ccc1C(=O)O [alisertib]
# Outline: as §1
# [2] = compound: COc1cc2nc(-c3cc(F)ccc3O)nc(N[C@@H]3CNC[C@H]3C(C)(C)O)c2cc1OC
# Outline: as §1
# gefitinib = compound: COc1cc2ncnc(Nc3ccc(F)c(Cl)c3)c2cc1OCCCN1CCOCC1 [gefitinib]
# Outline: as §1
# [3] = compound: COc1cccc2cc(-c3nc([C@H]4CC[C@H](C(=O)O)CC4)n4ncnc(N)c34)[nH]c12
# Outline: as §1
# lapatinib = compound: CS(=O)(=O)CCNCc1ccc(-c2ccc3ncnc(Nc4ccc(OCc5cccc(F)c5)c(Cl)c4)c3c2)o1 [lapatinib]
# Outline: as §1
# pictilisib = compound: CS(=O)(=O)N1CCN(Cc2cc3nc(-c4cccc5[nH]ncc45)nc(N4CCOCC4)c3s2)CC1 [pictilisib]
# Outline: as §1
# [4] = compound: CS(=O)(=O)c1ccc(-c2cnc(N)c(C(=O)Nc3ccccc3)n2)cc1
# Outline: as §1
# crizotinib = compound: C[C@@H](Oc1cc(-c2cnn(C3CCNCC3)c2)cnc1N)c1c(Cl)ccc(F)c1Cl [crizotinib]
# Outline: as §1
# [5] = compound: C[C@@H]1COCCN1C2=NC(=NC(=C2)C3(CC3)S(=O)(=O)C)C4=C5C=CNC5=CC=C4
# Outline: as §1
# [6] = compound: C[C@H](C1=CC=C(C=C1)C(=O)NC2=C3C=CNC3=NC=C2)N
# Outline: as §1
# gandotinib = compound: Cc1cc(Nc2cc(CN3CCOCC3)c3nc(C)c(Cc4ccc(Cl)cc4F)n3n2)n[nH]1 [gandotinib]
# Outline: as §1
# [7] = compound: Cc1cc(SCc2sc(-c3ccc(C(F)(F)F)cc3)nc2C)ccc1OCC(=O)O
# Outline: as §1
# doramapimod = compound: Cc1ccc(-n2nc(C(C)(C)C)cc2NC(=O)Nc2ccc(OCCN3CCOCC3)c3ccccc23)cc1 [doramapimod]
# Outline: as §1
# ispinesib = compound: Cc1ccc(C(=O)N(CCCN)[C@@H](c2nc3cc(Cl)ccc3c(=O)n2Cc2ccccc2)C(C)C)cc1 [ispinesib]
# Outline: as §1
# duvelisib = compound: C[C@H](Nc1ncnc2nc[nH]c12)c1cc2cccc(Cl)c2c(=O)n1-c1ccccc1 [duvelisib]
# Outline: as §1
# tozasertib = compound: Cc1cc(Nc2cc(N3CCN(C)CC3)nc(Sc3ccc(NC(=O)C4CC4)cc3)n2)n[nH]1 [tozasertib]
# Outline: as §1
Target,log2 fold change [1],log2 fold change (filanesib),log2 fold change (zotarolimus),log2 fold change (idasanutlin),log2 fold change (alisertib),log2 fold change [2],log2 fold change (gefitinib),log2 fold change [3],log2 fold change (lapatinib),log2 fold change (pictilisib),log2 fold change [4],log2 fold change (crizotinib),log2 fold change [5],log2 fold change [6],log2 fold change (gandotinib),log2 fold change [7],log2 fold change (doramapimod),log2 fold change (ispinesib),log2 fold change (duvelisib),log2 fold change (tozasertib)
PSMD5 (UniProt Q16401),inactive: 0.024,inactive: -0.046,inactive: 0.013,inactive: -0.055,inactive: -0.055,inactive: -0.017,inactive: -0.013,inactive: 0,inactive: 0.017,inactive: -0.017,inactive: 0.008,inactive: 0.006,inactive: 0.046,inactive: -0.064,inactive: -0.051,inactive: -0.013,inactive: -0.03,inactive: 0.03,–,–
PYGB (UniProt P11216),inactive: -0.024,inactive: 0.035,inactive: -0.023,inactive: -0.013,inactive: -0.019,active: 0.237,inactive: -0.037,inactive: 0.028,inactive: -0.223,inactive: -0.164,active: -0.305,inactive: -0.057,inactive: 0.015,inactive: 0.107,inactive: -0.045,inactive: -0.002,inactive: -0.005,inactive: 0.013,–,–
PTGES3 (UniProt Q15185),inactive: 0.23,inactive: -0.091,inactive: 0.055,inactive: 0.004,inactive: 0.016,inactive: -0.044,inactive: 0.044,inactive: -0.038,inactive: 0.007,inactive: 0.027,inactive: 0.047,inactive: 0.066,inactive: 0.068,inactive: -0.101,inactive: -0.049,inactive: 0.086,inactive: -0.118,inactive: 0.015,–,–
PSMD2 (UniProt Q13200),inactive: -0.036,inactive: 0.051,inactive: -0.015,inactive: 0.039,inactive: -0.089,inactive: -0.071,inactive: -0.043,inactive: -0.053,inactive: 0.077,inactive: -0.059,inactive: 0.017,inactive: 0.019,inactive: -0.063,inactive: 0.075,inactive: 0.015,inactive: 0.004,inactive: 0.021,inactive: -0.017,–,–
PTPRS (UniProt Q13332),inactive: 0.518,inactive: 0.022,–,inactive: 0.016,–,–,inactive: 0.115,–,–,inactive: 0.262,inactive: -0.051,inactive: -0.086,inactive: 0.107,–,inactive: -0.395,inactive: 0.045,inactive: 0.125,inactive: 0.006,inactive: -0.21,–
"PSMB2, A0A087WVV1",inactive: 0.001,inactive: 0.009,–,inactive: -0.199,inactive: 0.128,inactive: -0.129,inactive: 0.086,inactive: -0.029,inactive: 0.031,inactive: 0.063,inactive: -0.179,inactive: 0.064,–,–,inactive: -0.106,inactive: 0.027,inactive: -0.054,inactive: 0.029,inactive: -0.063,–
PSMD4 (UniProt Q5VWC4),inactive: -0.031,inactive: -0.032,inactive: -0.006,inactive: -0.007,inactive: -0.068,inactive: -0.135,inactive: -0.006,inactive: 0.024,inactive: 0.052,inactive: -0.13,inactive: -0.07,inactive: 0.033,inactive: 0,inactive: 0.125,inactive: -0.027,–,inactive: 0.019,–,–,–
PSEN1 (UniProt P49768),inactive: -0.077,inactive: -0.04,inactive: 0.078,–,inactive: -0.03,inactive: 0.017,inactive: 0.007,inactive: 0.128,inactive: -0.044,–,inactive: 0.006,inactive: -0.076,inactive: 0.1,inactive: -0.004,–,inactive: 0.001,inactive: 0.012,inactive: -0.061,inactive: 0.057,inactive: -0.012
PTK2B (UniProt Q14289),inactive: 0.083,inactive: -0.077,inactive: 0.019,inactive: 0.026,inactive: 0.064,inactive: 0.345,inactive: -0.011,inactive: -0.057,inactive: -0.022,inactive: 0.117,inactive: -0.029,–,inactive: -0.03,inactive: 0.234,inactive: -0.03,inactive: 0.016,–,inactive: -0.233,–,–
PYCR1 isoform 3 (UniProt P32322),inactive: 0.155,inactive: -0.157,inactive: 0.019,inactive: -0.036,inactive: -0.044,inactive: -0.002,inactive: 0.013,inactive: 0.018,inactive: 0.04,inactive: -0.015,–,inactive: 0.022,inactive: 0.052,inactive: -0.122,inactive: 0.154,inactive: -0.007,inactive: -0.01,inactive: 0.054,inactive: 0,inactive: 0.018
PSMC3 (UniProt P17980),inactive: -0.035,inactive: 0.043,inactive: 0.001,inactive: 0.045,inactive: -0.056,inactive: -0.015,inactive: -0.045,inactive: -0.038,inactive: 0.047,inactive: 0.013,inactive: 0.002,inactive: 0.012,inactive: -0.098,inactive: 0.067,inactive: 0.027,inactive: 0.011,inactive: 0.017,inactive: -0.024,–,–
PRXL2A (UniProt Q9BRX8),inactive: -0.17,inactive: -0.021,inactive: 0.008,inactive: 0.186,inactive: 0.482,inactive: 0.221,–,inactive: 0.039,inactive: -0.033,inactive: -0.182,inactive: 0.031,inactive: 0.054,inactive: 0.131,inactive: -0.014,inactive: -0.212,inactive: -0.024,inactive: 0.034,–,inactive: 0,inactive: -0.235
PTPN2 (UniProt P17706),inactive: 0.027,inactive: 0.152,inactive: 0.065,inactive: -0.11,inactive: 0.064,inactive: 0.078,–,inactive: -0.084,inactive: 0.022,inactive: 0.023,inactive: 0.012,inactive: 0.064,inactive: 0.077,inactive: 0.042,inactive: -0.065,inactive: 0.038,inactive: -0.048,inactive: 0.056,inactive: -0.055,inactive: 0.044
PTGFRN (UniProt Q9P2B2),inactive: 0.006,inactive: 0.129,inactive: -0.021,inactive: 0.073,inactive: 0.01,inactive: 0.139,inactive: 0.025,inactive: 0.124,inactive: 0.036,inactive: 0.122,inactive: 0.068,inactive: 0.057,inactive: 0.063,inactive: -0.003,inactive: -0.023,inactive: -0.065,inactive: 0.001,inactive: 0.165,–,–
PUS1 (UniProt Q9Y606),inactive: -0.085,inactive: 0.019,inactive: 0.066,inactive: -0.099,–,inactive: -0.03,–,–,inactive: -0.014,inactive: 0.072,inactive: 0.277,inactive: -0.057,inactive: -0.079,inactive: 0.058,inactive: -0.006,–,inactive: 0.265,inactive: -0.242,–,inactive: -0.143
PSMD9 (UniProt O00233),inactive: -0.028,inactive: -0.053,inactive: -0.021,inactive: 0.005,inactive: -0.074,inactive: 0.056,inactive: -0.013,inactive: -0.005,inactive: -0.021,active: -0.261,inactive: -0.041,inactive: -0.069,inactive: 0.022,inactive: -0.059,inactive: -0.018,inactive: -0.026,inactive: 0.001,inactive: 0.016,–,–
PSD4 (UniProt Q8NDX1),inactive: 0.004,inactive: 0.113,inactive: 0.186,inactive: 0.147,–,–,inactive: -0.049,–,–,–,inactive: 0.096,inactive: -0.114,inactive: -0.252,inactive: 0.033,–,inactive: 0.112,inactive: 0.083,inactive: -0.014,inactive: 0.012,inactive: 0.056
R3HDM1 isoform 2 (UniProt Q15032),inactive: 0.196,inactive: 0.043,–,inactive: -0.074,inactive: 0.064,inactive: 0.014,inactive: 0.072,inactive: 0.023,inactive: 0.015,inactive: 0.079,inactive: 0.064,inactive: 0.018,–,–,inactive: -0.025,inactive: 0.181,inactive: -0.082,inactive: 0.083,inactive: 0.062,inactive: -0.012

# Record cards, as listed above. Values in the order: log2 fold change [1] | log2 fold change (filanesib) | log2 fold change (zotarolimus) | log2 fold change (idasanutlin) | log2 fold change (alisertib) | log2 fold change [2] | log2 fold change (gefitinib) | log2 fold change [3] | log2 fold change (lapatinib) | log2 fold change (pictilisib) | log2 fold change [4] | log2 fold change (crizotinib) | log2 fold change [5] | log2 fold change [6] | log2 fold change (gandotinib) | log2 fold change [7] | log2 fold change (doramapimod) | log2 fold change (ispinesib) | log2 fold change (duvelisib) | log2 fold change (tozasertib)
# PYCR1 isoform 3 (UniProt P32322) as listed: inactive: 0.155 | inactive: -0.157 | inactive: 0.019 | inactive: -0.036 | inactive: -0.044 | inactive: -0.002 | inactive: 0.013 | inactive: 0.018 | inactive: 0.04 | inactive: -0.015 | – | inactive: 0.022 | inactive: 0.052 | inactive: -0.122 | inactive: 0.154 | inactive: -0.007 | inactive: -0.01 | inactive: 0.054 | inactive: 0 | inactive: 0.018
# PTPRS (UniProt Q13332) as listed: inactive: 0.518 | inactive: 0.022 | – | inactive: 0.016 | – | – | inactive: 0.115 | – | – | inactive: 0.262 | inactive: -0.051 | inactive: -0.086 | inactive: 0.107 | – | inactive: -0.395 | inactive: 0.045 | inactive: 0.125 | inactive: 0.006 | inactive: -0.21 | –
